Experimental data published in PubChem BioAssay AID1259415 (National Center for Advancing Translational Sciences (NCATS), 2018).
The whole screen tested about 410,000 compounds, of which about 18,000 (4.4%) were called active. The inconclusive results got no clear call from the source; some entries with a clear call stand among them for comparison. Rule as the data show it: active = activity change below about -60%; inconclusive = no clear call, values can overlap the other calls; inactive = above about -39%.

Assay: qHTS Assay for inhibitors of the human cytomegalovirus (HCMV)
Settings: HFF cells, HCMV-luciferase reporter, 72 h; at 57.5 µM; active compounds read low
Outline: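 Luciferase read-out from HCMV-luciferase-infected HFFs (MOI 1 PFU/cell) 72 h post infection at 37C; compounds added after 16 h cell attachment; activity normalized between buffer-only basal and Salinomycin (10uM) inhibitor controls.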
% is scaled to controls: 0 for no effect and ±100 for the full control effect.

| Compound | activity change, negative = inhibition |
| --- | --- |
| Cc1ccc(C)c(N2CCN(C(=O)CCS(=O)(=O)c3ccc4c(c3)NC(=O)CO4)CC2)c1 | active: -73.2% |
| Fc1ccc(NC(=S)NCCN2CCOCC2)cc1 | inconclusive: -41.9% |
| COc1cc(NCCCCC(C)N)c2nccc(C)c2c1 (centres undefined) | active: -70.6% |
| CN1CCN(S(=O)(=O)c2ccc3ccccc3c2)CC1 | inactive: 8.92% |
| CCOc1ncccc1C(=O)OC(C)C(=O)NC(=O)NC1CCCCC1 (centres undefined) | inconclusive: -45.3% |
| COc1ccc(C(=O)O/N=C(/c2ccccc2)c2ccncc2)cc1OC | inconclusive: -45.9% |
| CCOCCCNC(=O)Cn1nc(Cc2ccncc2)c2ccccc2c1=O | inconclusive: -40.9% |
| CCCCN(CCCNC(=O)c1ccc2c(c1)NC(=O)CN2C)c1ccccc1 | active: -98.3% |
| COc1ccc(NC(=O)CSc2nc3c(oc4ccccc43)c(=O)n2Cc2ccco2)cc1Cl | active: -97.8% |
| CN1CCN(C(=O)CN2C(=O)NC(C)(c3ccc4ccccc4c3)C2=O)CC1 (centres undefined) | inconclusive: -45.3% |
| CC(=O)c1cccc(S(=O)(=O)Nc2ccc3nc(C)sc3c2)c1 | inconclusive: -49.8% |
| Cc1cccc(C(=O)Nc2ccnc(-c3cccnc3)n2)c1 | inconclusive: -52.9% |
| O=C(Cc1ccc(F)cc1)N(c1ccc(F)cc1)C1C=CS(=O)(=O)C1 (centres undefined) | inconclusive: -44% |
| Cc1ccc(C)c(NC(=S)NC(NC(=O)/C=C/c2ccccc2)C(Cl)(Cl)Cl)c1 (centres undefined) | inconclusive: -57.5% |
| COc1cc(OC)c(C2N(c3cc(C)on3)C(=O)C3CCCN32)cc1OC (centres undefined) | inactive: -36% |
| C=CCN(CC(=O)NC1CCCC1)C(=O)C(=O)Nc1ccc2c(c1)OCCO2 | inconclusive: -48.8% |
| COc1ccc(/C=N/NC(=O)c2cccnc2)cc1COc1ccc([N+](=O)[O-])cc1 | inconclusive: -53.8% |
| Brc1ccc(-c2csc(-c3c[nH]c4ccccc34)n2)cc1 | inactive: -10.2% |
| C=CCN(CC=C)C(=O)c1cccc(S(=O)(=O)N2c3ccccc3CC2C)c1 (centres undefined) | inactive: -37.2% |
| Cc1ccc(C(=O)NC(=S)NNS(=O)(=O)c2ccc(C)cc2)cc1 | inconclusive: -47% |
| CCOC(=O)/C(C#N)=c1/s/c(=C2\C=Cc3ccccc3N2CC)c(=O)n1CC | inactive: 13.3% |

| Compound | activity change, negative = inhibition |
| --- | --- |
| CC1CC(C)(C)NC(=S)N1CCC(=O)N1CCN(c2ccccc2)CC1 (centres undefined) | inconclusive: -57.5% |
| COc1cc(S(=O)(=O)NCCc2c(C)[nH]c3ccccc23)c(C)cc1C | active: -103% |
| O=C(COc1ccccc1Cc1ccccc1)Nc1cccc(S(=O)(=O)N2CCOCC2)c1 | inactive: -28.7% |
| CCN(CC)c1ccc(NC(=O)c2ccc(NC(=O)C3CCCO3)cc2)c(C)c1 (centres undefined) | inconclusive: -50.2% |
| C/C(=N\NC(=S)Nc1ccccc1)C1Cc2ccccc2C(=O)O1 (centres undefined) | inconclusive: -52.5% |
| O=C1NC[C@H](Cc2ccccc2)N(C[C@@H]2CCCN2C[C@H](Cc2ccccc2)N2C[C@H](Cc3ccc(O)cc3)N(CCc3ccccc3)C(=O)C2=O)C1=O | inconclusive: -46% |
| CCCCNC(=S)Nc1ccccc1Cc1ccccc1 | inconclusive: -41.5% |
| COc1ccccc1OCC(=O)NNc1c2ccccc2nc2ccccc12 | active: -92.2% |
| Cc1ccc(/C=N/NC(=O)c2nnn(-c3nonc3N)c2CN(C)c2ccccc2)s1 | inconclusive: -44.3% |
| Cc1cccc(NC(=O)c2ccc(C3SCC(=O)N3CCc3ccccc3)cc2)c1 (centres undefined) | inconclusive: -48.3% |
| C/C=C/c1ccc(OCCCCOc2ccccc2C(C)=O)c(OC)c1 | inconclusive: -41.7% |
| CC1CCN(S(=O)(=O)c2ccc3c(ccc(=O)n3CC(=O)Nc3cccc(F)c3)c2)CC1 | inconclusive: -44% |
| CCOc1ccc(NC(=O)CN(C)C(=O)CC2CCCCC2)cc1OCC | active: -68% |
| Cc1ccc(NC(=O)c2cc(S(=O)(=O)NCCc3ccc(Cl)cc3)ccc2F)cc1 | inconclusive: -49% |
| CCn1c(SCC(=O)Nc2ccc(C(C)=O)cc2)nc2nc3c(cc2c1=O)CCCC3 | inconclusive: -40.8% |
| CC(C)(C)C1CCc2oc3ccc(NS(=O)(=O)c4ccc(C(=O)O)cc4)cc3c2C1 (centres undefined) | inconclusive: -54.8% |
| CCC(=O)N/C(=N/c1nc(C)cc(C)n1)Nc1ccccc1 | inconclusive: -55.6% |
| COc1ccc(C(=O)Nc2ccccc2C(=O)N(Cc2ccco2)C(C(N)=O)C(C)C)cc1 (centres undefined) | active: -75.5% |
| COc1ccc(CCNc2ncnc3c2cnn3-c2cc(Cl)ccc2C)cc1 | active: -61.2% |
| O=C(N/N=C/c1ccc(O)cc1)c1nc(-c2ccccc2)n(-c2ccccc2)n1 | inconclusive: -46.7% |
| COc1ccccc1CNC(=O)c1cn(C)c2ccc(S(=O)(=O)N(C)C3CCCCC3)cc2c1=O | inactive: -4.85% |

20 successive compounds from above, for reference:

| Compound | activity change, negative = inhibition |
| --- | --- |
| COc1ccc(NC(=O)CSc2nc3c(oc4ccccc43)c(=O)n2Cc2ccco2)cc1Cl | active: -97.8% |
| CN1CCN(C(=O)CN2C(=O)NC(C)(c3ccc4ccccc4c3)C2=O)CC1 (centres undefined) | inconclusive: -45.3% |
| CC(=O)c1cccc(S(=O)(=O)Nc2ccc3nc(C)sc3c2)c1 | inconclusive: -49.8% |
| Cc1cccc(C(=O)Nc2ccnc(-c3cccnc3)n2)c1 | inconclusive: -52.9% |
| O=C(Cc1ccc(F)cc1)N(c1ccc(F)cc1)C1C=CS(=O)(=O)C1 (centres undefined) | inconclusive: -44% |
| Cc1ccc(C)c(NC(=S)NC(NC(=O)/C=C/c2ccccc2)C(Cl)(Cl)Cl)c1 (centres undefined) | inconclusive: -57.5% |
| COc1cc(OC)c(C2N(c3cc(C)on3)C(=O)C3CCCN32)cc1OC (centres undefined) | inactive: -36% |
| C=CCN(CC(=O)NC1CCCC1)C(=O)C(=O)Nc1ccc2c(c1)OCCO2 | inconclusive: -48.8% |
| COc1ccc(/C=N/NC(=O)c2cccnc2)cc1COc1ccc([N+](=O)[O-])cc1 | inconclusive: -53.8% |
| Brc1ccc(-c2csc(-c3c[nH]c4ccccc34)n2)cc1 | inactive: -10.2% |
| C=CCN(CC=C)C(=O)c1cccc(S(=O)(=O)N2c3ccccc3CC2C)c1 (centres undefined) | inactive: -37.2% |
| Cc1ccc(C(=O)NC(=S)NNS(=O)(=O)c2ccc(C)cc2)cc1 | inconclusive: -47% |
| CCOC(=O)/C(C#N)=c1/s/c(=C2\C=Cc3ccccc3N2CC)c(=O)n1CC | inactive: 13.3% |
| CC1CC(C)(C)NC(=S)N1CCC(=O)N1CCN(c2ccccc2)CC1 (centres undefined) | inconclusive: -57.5% |
| COc1cc(S(=O)(=O)NCCc2c(C)[nH]c3ccccc23)c(C)cc1C | active: -103% |
| O=C(COc1ccccc1Cc1ccccc1)Nc1cccc(S(=O)(=O)N2CCOCC2)c1 | inactive: -28.7% |
| CCN(CC)c1ccc(NC(=O)c2ccc(NC(=O)C3CCCO3)cc2)c(C)c1 (centres undefined) | inconclusive: -50.2% |
| C/C(=N\NC(=S)Nc1ccccc1)C1Cc2ccccc2C(=O)O1 (centres undefined) | inconclusive: -52.5% |
| O=C1NC[C@H](Cc2ccccc2)N(C[C@@H]2CCCN2C[C@H](Cc2ccccc2)N2C[C@H](Cc3ccc(O)cc3)N(CCc3ccccc3)C(=O)C2=O)C1=O | inconclusive: -46% |
| CCCCNC(=S)Nc1ccccc1Cc1ccccc1 | inconclusive: -41.5% |

Following part.

| Compound | activity change, negative = inhibition |
| --- | --- |
| COc1cc(C2NC(=O)NC(O)(C(F)(F)F)C2C(C)=O)cc(OC)c1OC (centres undefined) | inconclusive: -43.5% |
| CCOc1ccc(NC(=O)c2c(NC(=O)Cc3ccccc3)sc3c2CCCCC3)cc1 | active: -74.7% |
| Cc1ccc(/C=C2\SC(=S)N(CCC(=O)NNC(=O)c3ccccc3O)C2=O)cc1 | inconclusive: -46.7% |
| CC(C)c1ccc(S(=O)(=O)N2CCN(C(C)C(=O)Nc3ccccc3-c3ccccc3)CC2)cc1 (centres undefined) | inconclusive: -56.5% |
| Cc1cc(C)n(-c2ccc([N+](=O)[O-])cc2)n1 | inconclusive: -55.9% |
| CCc1c(C(=O)NC2CCCCC2)[nH]c(C)c1C(C)=O | inconclusive: -46.8% |
| CC1=C(C(=O)Nc2ccc(C)cc2C)C(c2cccs2)n2nc(SCc3cccc(C)c3)nc2N1 (centres undefined) | inconclusive: -46.5% |
| Cc1ccnc(NC(=O)Nc2ccc3c(c2)OCO3)c1 | inactive: -25.2% |
| CSc1nc(Cl)cc(Nc2ccccc2N)n1 | inconclusive: -50.5% |
| CCC(C(=O)Nc1cccc(-c2nc3cccnc3s2)c1C)c1ccccc1 (centres undefined) | inconclusive: -54.4% |
| Cc1ccc(-c2ccc(=O)n(Cc3c(F)cccc3Cl)n2)cc1 | inconclusive: -48.9% |
| COc1ccc(NC(=O)c2cn(-c3ccccc3)nc2-c2cc3ccccc3o2)cc1 | inconclusive: -42.1% |
| COc1cccc(-n2c(SCC(N)=O)nc3c([nH]c4ccccc43)c2=O)c1 | inconclusive: -49.5% |
| COc1ccc(-n2c(=O)c3c(c4cc(OC)ccc4n3C)n(Cc3cccc(C)c3)c2=O)cc1 | inactive: -5.82% |
| COc1ccc2[nH]c3c(=O)n(CCCN4CCOCC4)cnc3c2c1 | inactive: 7.12% |
| COc1ccc(N(CC(=O)N2CCN(c3ccc(Cl)cc3)CC2)S(=O)(=O)c2c(C)n[nH]c2C)cc1 | active: -72.7% |
| Cc1cc(C)c(C(=O)N2CCCC(CNS(=O)(=O)c3cccs3)C2)o1 (centres undefined) | inconclusive: -53.7% |
| Cc1cccc2c1N(Cc1ccccc1OCCC(C)C)C(=O)C2=O | active: -93.2% |
| CC(C)NC(=O)c1sc2nc(-c3cccs3)cc(-c3cccs3)c2c1N | inconclusive: -49.5% |
| CC1CCCC(NC(=O)C2COc3ccccc3O2)C1C (centres undefined) | inactive: -4.82% |
| CCCCSc1nnc2n(-c3ccc(OC)cc3)c(=O)c3c4c(sc3n12)COC(C(C)C)C4 (centres undefined) | inactive: 28.7% |

| Compound | activity change, negative = inhibition |
| --- | --- |
| O=C(CCl)Nc1ncc(S(=O)(=O)c2ccc([N+](=O)[O-])cc2)s1 | inactive: 2.51% |
| Cn1cnc([N+](=O)[O-])c1Nc1ccc(O)cc1 | inactive: -24% |
| COc1cc(OC)cc(C(=O)NCC(=O)OCC(=O)c2cc(C)n(Cc3ccco3)c2C)c1 | inconclusive: -43.1% |
| CCOc1ccc(C(=O)Nc2ccc(-c3cc4ccccc4oc3=O)c(C)c2)cc1[N+](=O)[O-] | inconclusive: -47.2% |
| CC(=O)c1c(C)nc2ccc(C)cc2c1-c1ccccc1 | inconclusive: -50.7% |
| Cn1nnnc1Sc1ncnc2scc(-c3ccc(C(F)(F)F)cc3)c12 | active: -99.1% |
| Cc1ccc(-c2nnc(SCC(=O)Nc3ccccc3F)o2)cc1 | active: -94.9% |
| CCN(CC)c1ccc(C(=O)NC(=S)N2CCN(Cc3ccc4c(c3)OCO4)CC2)cc1 | inactive: -7.73% |
| Cn1c(=O)oc2cc(S(=O)(=O)N3CCc4ccccc43)ccc21 | inconclusive: -43.8% |
| C=CC[C@H](CC(=O)N(CCO)Cc1ccccc1)C(=O)NC[C@@H](OC(=O)[C@@H](CC=C)Cc1ccc(F)cc1)c1ccccc1 | inactive: 41.9% |
| O=C(NNC(=O)C1CCN(S(=O)(=O)c2ccc(Cl)cc2)CC1)c1ccc(S(=O)(=O)N2CCCCC2)cc1 | inconclusive: -50.2% |
| CCn1cc(C(=O)NCCc2ccc(OC)c(OC)c2)c(=O)c2cc(S(=O)(=O)N3CCCCCC3)ccc21 | inactive: 16% |
| CCN(CC)CCn1c(NC(=O)c2ccccc2O)nc2ccccc21 | inconclusive: -40% |
| CSc1ncc(C(=O)Nc2ccc(C)c(Cl)c2)c(-c2ccccc2)n1 | inconclusive: -48.6% |
| Nc1ccc(-c2ncc(-c3ccccc3)o2)cc1 | inconclusive: -55.3% |
| COc1ccccc1CC1(C)C(=O)Nc2c(Cl)cccc21 (centres undefined) | active: -72.8% |
| COc1cccc(NC(=O)NC2CCCc3ccccc32)c1 (centres undefined) | active: -66.8% |
| C[C@@H]1CN([C@H](C)CO)C(=O)c2c(c3ccccc3n2C)-c2ccccc2CO[C@H]1CN(C)Cc1ccc(C(F)(F)F)cc1 | active: -106% |
| Cc1csc(NC(=O)CCSCCc2ccccn2)n1 | inactive: -18.4% |
| CC1CCN(C(=O)CCN2C(=O)/C(=C/c3cccs3)SC2=S)CC1 | inactive: 6.15% |
| Cn1c(=O)n(C)c2cc([N+](=O)[O-])c(N3CCN(C(=O)c4cccc(Cl)c4)CC3)cc21 | inconclusive: -40.5% |
